The list shows a part of the results.

Sequences of proteins named here, by UniProt entry; tags and fusion partners are left off.
UniProt Q0JBA9, entry or part of it: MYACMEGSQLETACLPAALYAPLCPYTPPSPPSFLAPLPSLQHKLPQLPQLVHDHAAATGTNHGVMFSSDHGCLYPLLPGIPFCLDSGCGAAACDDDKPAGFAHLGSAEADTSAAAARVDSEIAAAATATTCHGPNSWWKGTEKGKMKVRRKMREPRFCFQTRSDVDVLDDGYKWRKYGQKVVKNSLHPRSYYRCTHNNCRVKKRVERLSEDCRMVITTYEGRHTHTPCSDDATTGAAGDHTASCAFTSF

This assay addresses OsWRKY34 (Oryza sativa, UniProt Q0JBA9 1-250). Nature of the assay: protein-binding microarray (RPBM); PBS, 2% BSA, 51.3 ng/ul salmon testes DNA, 50 uM zinc acetate, 200 nM TF, 25 C, 1 h; high values mean tight binding. Conditions: protein: recombinant; tags: N-terminal polyhistidine and DsRed monomer fusion (pET32a); label: CyDye5-dUTP incorporated in the synthesized complementary strand; 3' TTTTT single-stranded linker to array surface; dsDNA, one strand shown. A digest of the protocol: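 The binding signal is fluorescence intensity per array feature (arbitrary units). Readings came from an Axon 4000B scanner after a washed, 2% BSA-blocked, double-stranded custom Agilent array had been incubated for 1 h at 25 °C with 200 nM protein and 50 µM zinc acetate. The protein was a Ni–NTA-purified transcription factor fused N-terminally to polyhistidine and DsRed, expressed in E. coli BL21-CodonPlus.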
Turning to “CAAGTTTATGTTCGTCTCGCCTTTGTTTAATTTCTCTTTCCGGAGTCACCTAGTGCAG”, the binding signal is 12000 fluorescence intensity (a.u.).

On to “TGCTGGCTGAATACTACTACCATGTCATCTATAGCCATCACGGAGTCACCTAGTGCAG”, for which the binding signal was 8760 fluorescence intensity (a.u.).

Take “GGATAAAAGTCAGGAAGGATCGGGGTGTATAACAAACAAACGGAGTCACCTAGTGCAG”: the binding signal was 8430 fluorescence intensity (a.u.). As for “CATTTTTAAATCCTAACCATTCATTCTCCCTTTTCCATTTCGGAGTCACCTAGTGCAG”, the binding signal was 9100 fluorescence intensity (a.u.).

As for “ACGCACTGTCAACCCATGACGCCACTGCTACGGTCTTCCGCGGAGTCACCTAGTGCAG”, the binding signal was 8240 fluorescence intensity (a.u.). The figure for “TGTCTCAACAACAAGCTCTGTGTGCTGCAGTGTCATTCCACGGAGTCACCTAGTGCAG” is 8160 fluorescence intensity (a.u.). For the sequence “AAATTTGAAGTAGTTTGACTTTGACCAAAGTCAAAACATCCGGAGTCACCTAGTGCAG”, the binding signal was 17600 fluorescence intensity (a.u.). Regarding “TTGAGCAGCCTGGATTTTGTTGATCTCTCACACAACACACCGGAGTCACCTAGTGCAG”, the binding signal is 9680 fluorescence intensity (a.u.). With “GTAGGGCTGCTTGCGCCGCTGTGTTTTTTGTGCTTTGGTTCGGAGTCACCTAGTGCAG”, the binding signal is 8550 fluorescence intensity (a.u.). With “ACTTCGTGGGGTGCCTCACTGCCTCCTGCAGTACTAATATCGGAGTCACCTAGTGCAG”, the binding signal was 9500 fluorescence intensity (a.u.). In the case of “TTTGCTCATTTATTCACTTGCCACATTATTTTTTAGGCAACGGAGTCACCTAGTGCAG”, the binding signal was 13900 fluorescence intensity (a.u.). Consider “TCGTTGTCTAGCTGGAGGCTTTGAGCTCCTCATGTGCGTTCGGAGTCACCTAGTGCAG”, for which the binding signal was 8560 fluorescence intensity (a.u.). As for “AGTCTCTATATGAACCTCTAAGCAATTCCCATCACATTTTCGGAGTCACCTAGTGCAG”, the binding signal is 8320 fluorescence intensity (a.u.).

Regarding “GATGCCGCCCGCCGTCAACCTCGCCGCCAACCGCGCGCCGCGGAGTCACCTAGTGCAG”, the binding signal was 9850 fluorescence intensity (a.u.). Then “ACTCCGCCGTGCGCATCCTCTCTCGCTCGCTCCTCACTCGCGGAGTCACCTAGTGCAG”, with 10300 fluorescence intensity (a.u.); and “TTCCCATTTCGCCGATCCCACCCACGGCGGCGCCGCCACCCGGAGTCACCTAGTGCAG”, with 8050 fluorescence intensity (a.u.). Consider “ATCTGGTTTTGTGGTTTAGGGTCATGGATTAGATTTCGACCGGAGTCACCTAGTGCAG”, for which the binding signal was 10300 fluorescence intensity (a.u.).

“ACCACTCCTTCTAAAACCCGGAATTTCCCTCCTTTCGTCTCGGAGTCACCTAGTGCAG”: the binding signal was 8850 fluorescence intensity (a.u.). Then “AATGTTTGACGCCGTTGACTTTTTTAAACATGTTTGACCACGGAGTCACCTAGTGCAG”, with 42500 fluorescence intensity (a.u.); and “CTCGCAAGCATTCGCACCGCATTCCTTCGTCTGTTGCTGCCGGAGTCACCTAGTGCAG”, with 8150 fluorescence intensity (a.u.). Consider “CGAGCTCCACCACCACCACCACCACCACCTCCTCCTCCTCCGGAGTCACCTAGTGCAG”, for which the binding signal was 9950 fluorescence intensity (a.u.). Take “ATAATTTTGCTTGTGTGGTTAGTTTGTTTGGGCCGCTTTCCGGAGTCACCTAGTGCAG”: the binding signal is 10800 fluorescence intensity (a.u.). As for “CTCGCTTGCTTACCATTAACCACAGTAACAAGTGCACCACCGGAGTCACCTAGTGCAG”, the binding signal is 8090 fluorescence intensity (a.u.). For “TCTAAACCGCAACAATGGTAAATTTACCCGGTCCAAATTGCGGAGTCACCTAGTGCAG”, the binding signal was 9380 fluorescence intensity (a.u.). On to “CGCGTGCTCCGTTTCTGCCTTCCGCTTTCCATCGCGCACGCGGAGTCACCTAGTGCAG”, for which the binding signal was 13500 fluorescence intensity (a.u.). For “CTCTGTTCATCCACGCTACCTCGCGTCCCTCTCTCCTCTCCGGAGTCACCTAGTGCAG”, the binding signal is 10100 fluorescence intensity (a.u.). For “CCTTGCCGCGTGTCCACCTGCCCTTTCATCGACACCAACACGGAGTCACCTAGTGCAG”, the binding signal was 8400 fluorescence intensity (a.u.). Consider “TTTCCACCGTTTGGCGTTTGGGTAGGGTTGGGATGGGATGCGGAGTCACCTAGTGCAG”, for which the binding signal is 17200 fluorescence intensity (a.u.). “GCCTCAAGTAATTCACAGTTTTCTGCAGCCGACGACCGCTCGGAGTCACCTAGTGCAG”: the binding signal is 8330 fluorescence intensity (a.u.). For “CCTTCCTTGGCTGCCCGTGAGCTTCCCGCGCGCGCCATGGCGGAGTCACCTAGTGCAG”, the binding signal was 8210 fluorescence intensity (a.u.). The figure for “ACCCAACTGCAGATAACCACCAGGACCAGACCATCAGCGCCGGAGTCACCTAGTGCAG” is 9480 fluorescence intensity (a.u.); for “TTTTTCACTTTGCTCTAATCCAAATCTTTTTTTTCTCTCTCGGAGTCACCTAGTGCAG” it is 9220 fluorescence intensity (a.u.); for “TACCTTTCGTTAATCCACTCACCAACTACACACTGACTGACGGAGTCACCTAGTGCAG” it is 8860 fluorescence intensity (a.u.). Consider “TTTCGTCAGCTGATCGTATATTGACCTTTTCTGTCTCTGTCGGAGTCACCTAGTGCAG”, for which the binding signal is 10500 fluorescence intensity (a.u.). On to “GTTGCCTCTCTCTCTCTCTCTCTCTCTCTCTTGCAGAACGCGGAGTCACCTAGTGCAG”, for which the binding signal is 8930 fluorescence intensity (a.u.). Take “GGAGGCCCATCACCGTCTCGCACTTTCTCGCTTCTAGTCCCGGAGTCACCTAGTGCAG”: the binding signal is 9130 fluorescence intensity (a.u.). On to “CTCGTTTTTACGCGTGATTTCGTCGTCTTGTTGCTGCTGACGGAGTCACCTAGTGCAG”, for which the binding signal was 9260 fluorescence intensity (a.u.). For “GTCTTATATTGCTTTTGGTTCGATTGTGGGCTTCGCGGGCCGGAGTCACCTAGTGCAG”, the binding signal was 11300 fluorescence intensity (a.u.). Regarding “TGCCACCCATATCCCACGCCCATCACCGAATACGAATCTGCGGAGTCACCTAGTGCAG”, the binding signal is 9090 fluorescence intensity (a.u.). Turning to “GGAAATTCGCAATAAATTTTTTGGTACCTCTTTCTCCATCCGGAGTCACCTAGTGCAG”, the binding signal was 8520 fluorescence intensity (a.u.). For “CACTGTCTATCCACCCAACCAGCCACTGACTGAAGCTTCACGGAGTCACCTAGTGCAG”, the binding signal is 8820 fluorescence intensity (a.u.). “GCGGATTAATTACTACTGGGCTGGCATTCTGATCACTTTGCGGAGTCACCTAGTGCAG”: the binding signal was 8850 fluorescence intensity (a.u.).

The values above are taken from PMC7819943, “Rice protein-binding microarrays: a tool to detect cis-acting elements near promoter regions in rice”.
